## Results from one PubChem assay

From PubChem BioAssay record AID1963582 (Tox21, 2024).

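Potency is fitted from the concentration series in HCT-116 p53 reporter cells, read as a beta-lactamase fluorescence ratio at 16 h.
The concentration series mostly goes up to 66 µM.
Potency is the fitted concentration that gives half the maximal activation; a lower value means a more potent compound.
Calls are based on the whole dose curve, and inconclusive means weak or mixed curves.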

Values are in µM.
All entries here are filed as inconclusive.
These entries are mostly ones the record files as inconclusive; other results of the assay are not listed here.
A potency from a partial, single-point or poor curve is only a rough figure.
Some entries filed as inconclusive have a full curve.
The first word of each remark tells which way the curve ran; it can be opposite to the aim of the assay.

For [Cl][Hg][c]1ccccc1 the result was Potency 5.134 µM (falling, full curve). Cc1ccc(C(=O)Oc2ccc(C(O)CNC(C)(C)C)cc2OC(=O)c2ccc(C)cc2)cc1 (centres undefined) gave Potency 22.35 µM (rising, partial curve). C=CCNc1nc(NCC=C)nc(N2CCN(C(c3ccc(F)cc3)c3ccc(F)cc3)CC2)n1 read Potency 3.542 µM (rising, partial curve). For CC(C)C(OC(=O)c1ccccc1)C(C)(C)COC(=O)c1ccccc1 (centres undefined) the result was Potency 14.47 µM (rising, full curve). Result for Nc1ccc(-c2ccc(N)c(Cl)c2)cc1Cl was Potency 14.47 µM (activator).

ClC(Cl)=C(c1ccc(Cl)cc1)c1ccccc1Cl gave Potency 9.129 µM (rising, partial curve). NC(=O)C1(N2CCCCC2)CCN(CCCN2c3ccccc3CCc3ccc(Cl)cc32)CC1 read Potency 25.08 µM. With [F][Sn]([c]1ccccc1)([c]1ccccc1)[c]1ccccc1 the assay gave Potency 0.1623 µM (fluorescent, full curve). With CC[C@H]1CC[C@H](NCc2cc3c(cc2OC)[C@H]2C[C@H]2C(=O)N3C)[C@H](c2ccccc2)N1 the assay gave Potency 1.623 µM (activator, single point). C=CC(=O)OCC1CC2CC1C1CCC(COC(=O)C=C)C21 (centres undefined) gave Potency 45.75 µM (activator).

For CC(C)c1ccc(O)c(C(C)C)c1 the result was Potency 0.9129 µM (rising, full curve, poor fit). Result for CC(C)(c1ccc(OCC2CO2)cc1)c1ccc(OCC2CO2)cc1 (centres undefined) was Potency 51.34 µM (activator). C[C@H]1O[C@@H](O[C@H]2[C@@H](O)C[C@H](O[C@H]3[C@@H](O)C[C@H](O[C@H]4CC[C@@]5(C)[C@H](CC[C@@H]6[C@@H]5CC[C@]5(C)[C@@H](C7=CC(=O)OC7)CC[C@]65O)C4)O[C@@H]3C)O[C@@H]2C)C[C@H](O)[C@@H]1O read Potency 0.1031 µM (rising, full curve). CC(C)(C)CC(C)(C)c1ccc(O)cc1 gave Potency 39.62 µM. Cc1cccc2c1cc1ccc3cccc4ccc2c1c34 gave Potency 20.92 µM (fluorescent, partial curve).

N#Cc1c(Cl)c(Cl)c(Cl)c(C#N)c1Cl gave Potency 10.05 µM (fluorescent, full curve). O=C(CCl)C(Cl)Cl gave Potency 20.64 µM (fluorescent). Result for CC1(C)[C@H](C(=O)O[C@H](C#N)c2cccc(Oc3ccccc3)c2)[C@@H]1C=C(Br)Br was Potency 10.66 µM (rising, full curve, poor fit). CCCCNC(=O)OCC#CI read Potency 12.83 µM (fluorescent, full curve). Oc1ccc(/C=C/c2cc(O)cc(O)c2)cc1 gave Potency 2.596 µM (rising, full curve, poor fit).

Cn1cnc([N+](=O)[O-])c1Sc1ncnc2nc[nH]c12 read Potency 1.613 µM (fluorescent). N#C[C@@H]1CC(F)(F)CN1C(=O)CNC1CC2CCC(C1)N2c1ncccn1 (some centres undefined) gave Potency 51.34 µM (rising, single point).

Once more, the final 2:

Compound	Potency (µM)	remark
Cn1cnc([N+](=O)[O-])c1Sc1ncnc2nc[nH]c12	1.613	fluorescent
N#C[C@@H]1CC(F)(F)CN1C(=O)CNC1CC2CCC(C1)N2c1ncccn1 (some centres undefined)	51.34	rising, single point